In paper PMC12700999:
These are yes or no findings as the source states them, for the method shown. In cells and extracts the contact can be indirect. Some entries that bind do so weakly or less than the wild type.

By UniProt entry, the sequences of proteins in these tests, tags left out. Residues count along the entry.
UniProt P02545, residues 1-646: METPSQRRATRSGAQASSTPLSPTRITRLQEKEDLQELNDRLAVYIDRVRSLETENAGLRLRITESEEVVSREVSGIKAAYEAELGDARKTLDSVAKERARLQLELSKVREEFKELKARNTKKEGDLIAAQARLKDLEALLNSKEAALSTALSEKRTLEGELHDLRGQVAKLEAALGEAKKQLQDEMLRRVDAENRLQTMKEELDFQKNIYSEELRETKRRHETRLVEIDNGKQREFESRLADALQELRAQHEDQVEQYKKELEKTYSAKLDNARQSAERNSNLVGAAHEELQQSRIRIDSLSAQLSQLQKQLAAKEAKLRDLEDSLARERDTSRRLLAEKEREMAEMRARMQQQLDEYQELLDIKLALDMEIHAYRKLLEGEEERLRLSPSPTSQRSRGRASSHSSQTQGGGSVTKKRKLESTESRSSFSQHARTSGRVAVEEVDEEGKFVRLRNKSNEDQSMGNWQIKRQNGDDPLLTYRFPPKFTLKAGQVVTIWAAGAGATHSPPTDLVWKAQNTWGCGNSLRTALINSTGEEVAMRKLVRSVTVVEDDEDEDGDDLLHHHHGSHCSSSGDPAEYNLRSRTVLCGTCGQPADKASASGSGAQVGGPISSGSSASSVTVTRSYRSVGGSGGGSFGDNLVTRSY
UniProt P35222: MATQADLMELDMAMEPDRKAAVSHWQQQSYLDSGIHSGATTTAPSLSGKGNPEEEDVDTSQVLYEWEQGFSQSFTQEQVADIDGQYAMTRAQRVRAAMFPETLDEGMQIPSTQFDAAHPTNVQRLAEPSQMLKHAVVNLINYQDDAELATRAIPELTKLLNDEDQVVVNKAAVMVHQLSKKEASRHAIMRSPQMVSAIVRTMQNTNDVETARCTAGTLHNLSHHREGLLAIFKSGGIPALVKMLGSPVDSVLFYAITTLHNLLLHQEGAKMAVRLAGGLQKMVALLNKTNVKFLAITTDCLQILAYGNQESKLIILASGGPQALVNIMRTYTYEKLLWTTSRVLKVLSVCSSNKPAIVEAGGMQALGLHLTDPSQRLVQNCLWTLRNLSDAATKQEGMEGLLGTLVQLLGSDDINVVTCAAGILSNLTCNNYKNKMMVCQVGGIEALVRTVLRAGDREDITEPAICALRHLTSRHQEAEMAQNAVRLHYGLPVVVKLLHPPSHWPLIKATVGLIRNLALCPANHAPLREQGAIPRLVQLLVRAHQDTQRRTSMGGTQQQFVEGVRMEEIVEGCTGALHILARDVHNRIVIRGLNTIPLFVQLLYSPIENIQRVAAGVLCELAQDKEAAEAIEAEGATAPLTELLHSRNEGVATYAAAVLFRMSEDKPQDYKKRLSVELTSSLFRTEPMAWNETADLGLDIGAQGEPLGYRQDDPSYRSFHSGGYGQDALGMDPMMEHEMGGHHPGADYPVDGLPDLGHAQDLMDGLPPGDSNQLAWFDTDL

Molecular target: Lamin A/C (human (endogenous in T24)) (UniProt P02545)
Test: co-IP; lysates of T24 cells cultured on 5 kPa and 30 kPa polyacrylamide gels, with or without Lamin A/C depletion (shLMNA) on 30 kPa; anti-Lamin A/C antibody overnight at 4 °C, protein G agarose beads 2 h at 4 °C, washed twice with lysis buffer; immunoblot with anti-β-catenin antibody

binding: binds
Substance: β-catenin (from UniProt P35222 1-781)
